At least one peptide structure holds a part that was inferred or is arguable (an end, a ring closure or a residue). Numbered stars: 1 amine (or outer) side, 2 acyl side, 3 side chain; on linkers, the order of the positions; unused ones are H or OH. Square brackets hold non-standard residues; d marks the D form. Peptide text beside a SMILES is read from it. X1 = O=C1[C@@H](N[*:1])Cc2ccccc2CN1CCC(=O)[*:2]; Dmt = Cc1cc(O)cc(C)c1C[C@H](N)C(=O)O
How the values were obtained:
[1] = tested on: Male CD1 mice; assay: Radiant heat tail-flick test of biogel compositions s.c. (in solution or as a gel); type: in vivo, mouse; conditions: injection volume of 150 μl
Description: Male CD1 mice (6-8 weeks old, body weight average 30 g) were obtained from Charles River (Sulzfeld, Germany). Mice were group-housed in a temperature controlled room with a 12 h light/dark cycle and with free access to food and water. All animal studies were conducted in accordance with ethical guidelines and animal welfare standards according to Austrian regulations for animal research, and were approved by the Committee of Animal Care of the Austrian Federal Ministry of Science and Research. […]
The radiant heat tail-flick test was used to assess antinociceptive effects of tested drugs after s.c. administration in mice using an UB 37360 Ugo Basile analgesiometer (Ugo Basile s.r.l., Varese, Italy) as described previously (A. Novoa et al., 2012). The reaction time required by the mouse to remove its tail due to the radiant heat was measured and defined as the tail-flick latency. […] The antinociceptive response was expressed as percent of Maximum Possible Effect (% MPE)=[(TL-BL)/(cut-off time-BL)]×100. Data were analyzed with ANOVA using Tukey's multiple comparison test, and graphically processed with the GraphPad Prism Software (GraphPad Software Inc., San Diego, CA). […]

Amino acid sequences for entries named in this document (tags omitted).
UniProt P35372, whole entry: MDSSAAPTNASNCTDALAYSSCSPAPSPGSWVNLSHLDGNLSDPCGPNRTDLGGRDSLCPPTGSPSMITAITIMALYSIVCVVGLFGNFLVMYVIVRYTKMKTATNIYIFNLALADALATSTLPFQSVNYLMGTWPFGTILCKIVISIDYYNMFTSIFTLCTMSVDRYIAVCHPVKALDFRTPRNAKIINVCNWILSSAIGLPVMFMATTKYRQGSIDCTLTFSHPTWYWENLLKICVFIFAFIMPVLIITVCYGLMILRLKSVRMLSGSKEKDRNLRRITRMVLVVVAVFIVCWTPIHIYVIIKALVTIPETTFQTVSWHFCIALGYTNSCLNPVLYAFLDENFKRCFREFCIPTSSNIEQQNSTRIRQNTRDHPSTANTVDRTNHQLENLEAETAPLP

[2] = molecular target: MOR (Homo sapiens, UniProt P35372); assay: Binding tests (Ki) MOR; conditions: read-out: Binding tests (Ki) in nM MOR

SMILES | Release profile as biogel in tail-flick test [1] | Ki [2]
Cc1cc(O)cc(C)c1C[C@H](N)C(=O)N[C@H](CCCCN)C(=O)N[C@@H](Cc1ccccc1)C(=O)N[C@@H](Cc1ccccc1)C(=O)N[C@@H](CCC(N)=O)C(=O)N[C@@H](Cc1ccccc1)C(=O)N[C@@H](CCC(N)=O)C(=O)N[C@@H](Cc1ccccc1)C(=O)N[C@@H](CCCCN)C(N)=O [CM-136, Dmt-OLy:s-Phe-Phe-Gln-Phe*-Gln-Phe*-Lys-NH2] (H-[Dmt][dK]FFQFQFK-NH2) | showed the desired sustained release curve | 
Cc1cc(O)cc(C)c1C[C@H](N)C(=O)N[C@H](CCCNC(=N)N)C(=O)N[C@H]1Cc2ccccc2CN(CCC(=O)N[C@@H](Cc2ccccc2)C(=O)N[C@@H](CCC(N)=O)C(=O)N[C@@H](Cc2ccccc2)C(=O)N[C@@H](CCC(N)=O)C(=O)N[C@@H](Cc2ccccc2)C(=O)N[C@@H](CCCCN)C(N)=O)C1=O [CM-59, Dmt-OArg-Aba-BAla-Phe-Gln-Phe*-Gln-Phe-Lys-NH2] (H-[Dmt][dR][X1]FQFQFK-NH2; N-terminus assumed) |  | 6.96 nM
